Measurements as given in PubChem BioAssay AID588590 (National Center for Advancing Translational Sciences (NCATS), 2011).
The campaign covered roughly 390,000 compounds. About 4,000 (1%) were called active. The shares of active, inactive and inconclusive entries below differ from those in the screen. Calls follow the shape of the dose curve; as a rule, active = well fitted inhibition curve with a large enough effect; inconclusive = small, poorly fitted or top-dose-only effect, or another doubt; inactive = no such curve, though single readings can be large or run the other way. Potencies beside an inconclusive call are fits to weak or partial responses and may not hold up.

Sequences of proteins named here, by UniProt entry; tags and fusion partners are left off. A change or cut given only in a name is not applied to a line headed by its entry.
UniProt Q9UNA4: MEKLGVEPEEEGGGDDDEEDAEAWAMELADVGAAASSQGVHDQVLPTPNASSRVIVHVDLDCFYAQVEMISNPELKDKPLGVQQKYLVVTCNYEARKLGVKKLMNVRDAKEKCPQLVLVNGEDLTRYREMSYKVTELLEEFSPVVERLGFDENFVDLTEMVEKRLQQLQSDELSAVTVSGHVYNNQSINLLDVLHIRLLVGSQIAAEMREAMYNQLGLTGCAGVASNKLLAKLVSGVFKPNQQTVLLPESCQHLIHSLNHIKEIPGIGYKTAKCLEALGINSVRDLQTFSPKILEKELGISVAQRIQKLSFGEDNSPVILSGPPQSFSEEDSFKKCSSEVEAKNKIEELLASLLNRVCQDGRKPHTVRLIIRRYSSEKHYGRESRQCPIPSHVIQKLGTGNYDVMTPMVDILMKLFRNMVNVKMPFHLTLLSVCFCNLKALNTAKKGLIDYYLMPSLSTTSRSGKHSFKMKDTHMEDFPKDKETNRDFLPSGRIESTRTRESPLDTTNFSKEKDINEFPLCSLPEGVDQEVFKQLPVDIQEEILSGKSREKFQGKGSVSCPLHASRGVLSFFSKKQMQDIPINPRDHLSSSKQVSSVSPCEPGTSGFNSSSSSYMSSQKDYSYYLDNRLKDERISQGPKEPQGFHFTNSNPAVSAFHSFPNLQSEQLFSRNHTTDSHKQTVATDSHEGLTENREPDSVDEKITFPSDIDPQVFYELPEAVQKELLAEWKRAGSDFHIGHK

Molecular target: DNA polymerase iota (Homo sapiens) (UniProt Q9UNA4)
Assay: qHTS for Inhibitors of Polymerase Iota
Conditions: Pol iota fluorescent replication assay, 10 min; series mostly up to 115 µM; activity, negative = inhibition: at the top concentration
In short: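 Pol iota at 10 nM preincubated 15 min with compounds at room temperature; reaction started with fluorescent substrate, 50 nM final. Fluorescence read kinetically at 0 and 10 min; buffer-only wells as negative control.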
Potency is read from the fitted curve at half-maximal effect.

Compound	Potency	activity, negative = inhibition
CCOc1ccc(N(CC(=O)Nc2ccc(C)c(C)c2)S(=O)(=O)c2c(C)noc2C)cc1	inconclusive: 0.708 µM [inhibitor, full curve, poor fit]	
N#Cc1c(-c2cccc(Br)c2)cc(-c2ccco2)[nH]c1=O	inconclusive: 12.6 µM [inhibitor, partial curve, poor fit]	
CCN1CCN(Cc2ccc(NC(=O)c3cc(NC(=O)C(=O)c4c[nH]c5ccccc45)cc(OC)c3)cc2C(F)(F)F)CC1	inconclusive: 28.2 µM [inhibitor, single point]	
CCNc1nc(Oc2ccc(OCC(=O)OC)nn2)nc(N2CCOCC2)n1		inactive: 6.5%
N#C/C(=C\c1ccc(Cl)cc1)C(=O)NC1CC1	inconclusive: 35.5 µM [inhibitor, single point]	
CC(=O)Nc1ccc(/C=C/C(=O)c2ccc3c(c2)OCCO3)cc1	inconclusive: 8.91 µM [inhibitor, partial curve, poor fit]	
CC(C)(C)OC(=O)N[C@@H](Cc1ccccc1)C(=O)NCC1CCC(C(=O)N[C@@H](CC(=O)O)C(=O)O)CC1 (stereo not given in full)	inconclusive: 11.2 µM [inhibitor, partial curve, poor fit]	
COc1ccc(C(=O)COc2ccccc2C(=O)Nc2ccccc2)cc1		inactive: -10.2%
COCCCN1C(=O)C(O)=C(C(C)=O)C1c1cccc(F)c1 (stereo not given)	inconclusive: 31.6 µM [inhibitor, partial curve, poor fit]	
CCOC(=O)Cc1csc(NC(=O)Cc2cccs2)n1	inconclusive: 50.1 µM [inhibitor, partial curve, poor fit]	
Cc1cc(SCC(=O)Nc2ccc3[nH]c(=O)[nH]c3c2)nc2ccccc12	inconclusive: 10 µM [inhibitor, partial curve, poor fit]	
COc1cc(OC)c(NC(=O)c2cnc(N3CCCC3)nc2C)cc1Cl	inconclusive: 89.1 µM [inhibitor, single point]	
CC(=O)N(C1=C(Cl)C(=O)c2ccccc2C1=O)C1CCCCC1	inconclusive: 12.6 µM [inhibitor, partial curve, poor fit]	
COCCn1cnc2c(c1=O)c1nc3ccccc3nc1n2/N=C/c1cccc(OC)c1	inconclusive: 11.2 µM [inhibitor, full curve, poor fit]	
O=C1CN(C(=O)COc2ccc(Cl)cc2Cl)C(c2ccc(F)cc2)c2cc(F)ccc2N1 (stereo not given)	inconclusive: 28.2 µM [inhibitor, partial curve, poor fit]	
N#CNC(=Nc1cccc(Cl)c1)Oc1ccccc1	inconclusive: 28.2 µM [inhibitor, partial curve, poor fit]	
S=c1[nH]nc(Cc2ccccc2)n1Cc1ccco1	inconclusive: 79.4 µM [inhibitor, partial curve, poor fit]	
COc1cc(C(c2c(C)[nH][nH]c2=O)c2c(C)[nH][nH]c2=O)ccc1OC(=O)c1ccccc1F	inconclusive: 31.6 µM [inhibitor, single point]	
O=C(C[n+]1cc(Br)cc(Br)c1)c1ccc2c(c1)CCCC2		inactive: 19.9%
C=C(C)COc1ccc2c(C)c(CC(=O)N3C[C@H]4C[C@@H](C3)c3cccc(=O)n3C4)c(=O)oc2c1C	inconclusive: 79.4 µM [inhibitor, partial curve, poor fit]	

Compound	Potency	activity, negative = inhibition
Cc1ccc(C2NNC(=O)C2NC(=O)c2ccccc2)cc1 (stereo not given)	inconclusive: 20 µM [inhibitor, partial curve, poor fit]	
NC(=O)CSc1nnc(-c2ccncc2)n1CCc1ccccc1	inconclusive: 3.55 µM [inhibitor, single point]	
O=Cc1ccc(-c2nc3ccccc3s2)o1		inactive: 28.6%
CC(=O)Nc1ccc(NC(=O)CSc2nnc3c4cc(Br)ccc4n(C)c3n2)cc1	inconclusive: 50.1 µM [inhibitor, partial curve, poor fit]	
CCCC(=O)Nc1cccc(-c2nc3cc(C)c(C)cc3o2)c1C		inactive: 12.2%
CC(C)C[C@@H](CC#N)N1CCN(Cc2ccccc2)CCC1=O	inconclusive: 56.2 µM [inhibitor, partial curve, poor fit]	
CN1C(=O)/C(=C/c2cc(N=Nc3ccccc3)ccc2O)SC1=S	inconclusive: 10 µM [inhibitor, partial curve, poor fit]	
COCCNC(=O)c1c(N)n(CCC2=CCCCC2)c2nc3ccccc3nc12		inactive: 93.6%
NC(=O)c1c(NC(=O)c2cccc(N3C(=O)CCC3=O)c2)sc2c1CCCCC2	inconclusive: 15.8 µM [inhibitor, partial curve, poor fit]	
Cc1cc(C=O)c(C)n1-c1ccc(Oc2ccc([N+](=O)[O-])cn2)cc1	inconclusive: 112 µM [inhibitor, partial curve, poor fit]	
FC(F)(F)c1ccc(C2=Nc3ccccc3NC(c3cccs3)=N2)cc1		inactive: 16%
COC(=O)CCc1ccc(O)cc1		inactive: 8.3%
C[C@@]1([C@@H](NC(=O)c2cccs2)c2ccc(-c3ccccc3)cc2)C[C@H]1C1CCCCC1	inconclusive: 31.6 µM [inhibitor, partial curve, poor fit]	
CCOC(=O)c1sc(Nc2ccccc2Cl)nc1C	inconclusive: 12.6 µM [inhibitor, partial curve, poor fit]	
Cc1ccc(OCC(=O)Nc2c(Cl)ccc3nsnc23)cc1C	inconclusive: 89.1 µM [inhibitor, single point]	
Fc1ccc(-n2ncc3c(Nc4ccc(Oc5ccccc5)cc4)ncnc32)cc1	inconclusive: 89.1 µM [inhibitor, single point]	
COc1cc2c(cc1OC)CN(Cc1nc3ccsc3c(=O)[nH]1)CC2	inconclusive: 31.6 µM [inhibitor, partial curve, poor fit]	
COC(=O)C1CC(=O)N(Cc2ccccc2)C1 (stereo not given)	inconclusive: 25.1 µM [inhibitor, single point]	
Cc1ccc2c(c1)c1c(c(=O)n(-c3ccccc3C)c(=O)n1Cc1ccccc1F)n2C		inactive: 4.63%
Oc1ccc(N=Cc2c(O)ccc3ccccc23)cc1	inconclusive: 22.4 µM [inhibitor, partial curve, poor fit]	

Reformatted with each value named: entries from further up.
COc1ccc(C(=O)COc2ccccc2C(=O)Nc2ccccc2)cc1
  activity, negative = inhibition: inactive: -10.2%
CC(=O)N(C1=C(Cl)C(=O)c2ccccc2C1=O)C1CCCCC1
  Potency: inconclusive: 12.6 µM [inhibitor, partial curve, poor fit]
